These results are taken from patent US6887894B2, “Use of lipoic acid for improving the bioavailability of mineral salts” (BASF Aktiengesellschaft, priority 2000, dated 2005).

The nature of this data set: Study 3: Zn intake, fecal excretion and apparent absorption of zinc. The class given is in vivo. The settings on record: rats, PA-containing diets with high Zn level (20 mg/kg of diet). The protocol:
36 male Wistar albino rats (Harlan Winkelmann, Borchen) having an initial weight of 47.0±2.63 g were randomly divided into 6 groups each of 6 animals and fed the diets specified in Table 7 (experimental design) and Section 5.2 over a period of 28 days. The animals were kept individually in Makrolon cages on stainless grids under standard conditions (22° C., 55% relative humidity, 12 hour light/dark rhythm). Feed and deionized drinking water were available to the experimental animals ad libitum. During the 2nd and 3rd experimental week (metabolism phase) feces were collected quantitatively. After completion of the experimental phase (day 28), the animals were decapitated under CO2— anesthesia, exsanguinated and the tissue to be analyzed was removed. […]
During the two-week metabolism phase, the rat feces were collected daily, adherent feed residues and other impurities were removed and the samples were stored at −20° C. At the end of the metabolism period the fecal weight was determined quantitatively and feces were then freeze-dried under vacuum over a period of 48 h (Gamma 1-20, Christ, Osterode). […]
A sample aliquot of 1.5 g or the freeze-dried and ground fecal samples was dried for 24 h at 105° C. to remove residual water and then ashed in a muffle furnace at 450° C. for 21 h. The ash residue was dissolved by acid addition and then analyzed quantitatively. […]

With `O=C(O)CCCC[C@@H]1CCSS1` [Zn lipoate, Zn((R)-α-lipoate)2(H2O)2], the “Zn intake, effect of Zn lipoate supplementation” value is “significantly higher”.
